Data from the supplement of paper PMC10849652.
The other results are listed elsewhere or left out.

Protein sequences, listed by entry. Tags and fused reporters are not part of them. Lines headed by an entry give the natural chain unless they say otherwise; changes in a name come on top.
UniProt Q8WW59: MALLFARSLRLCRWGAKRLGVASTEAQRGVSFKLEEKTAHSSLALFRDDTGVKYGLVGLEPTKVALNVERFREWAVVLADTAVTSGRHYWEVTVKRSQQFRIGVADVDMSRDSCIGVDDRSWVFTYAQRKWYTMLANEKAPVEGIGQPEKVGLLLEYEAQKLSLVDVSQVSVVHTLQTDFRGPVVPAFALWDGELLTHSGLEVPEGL
UniProt Q9Y657, whole entry, looked up: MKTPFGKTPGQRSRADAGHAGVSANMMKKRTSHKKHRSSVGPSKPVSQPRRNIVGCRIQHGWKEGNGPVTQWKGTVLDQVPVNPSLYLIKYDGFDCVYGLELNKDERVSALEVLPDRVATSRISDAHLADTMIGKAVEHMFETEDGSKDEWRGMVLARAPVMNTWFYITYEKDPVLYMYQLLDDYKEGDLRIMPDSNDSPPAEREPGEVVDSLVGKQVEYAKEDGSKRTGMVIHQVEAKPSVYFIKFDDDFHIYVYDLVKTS
UniProt Q8NEF9: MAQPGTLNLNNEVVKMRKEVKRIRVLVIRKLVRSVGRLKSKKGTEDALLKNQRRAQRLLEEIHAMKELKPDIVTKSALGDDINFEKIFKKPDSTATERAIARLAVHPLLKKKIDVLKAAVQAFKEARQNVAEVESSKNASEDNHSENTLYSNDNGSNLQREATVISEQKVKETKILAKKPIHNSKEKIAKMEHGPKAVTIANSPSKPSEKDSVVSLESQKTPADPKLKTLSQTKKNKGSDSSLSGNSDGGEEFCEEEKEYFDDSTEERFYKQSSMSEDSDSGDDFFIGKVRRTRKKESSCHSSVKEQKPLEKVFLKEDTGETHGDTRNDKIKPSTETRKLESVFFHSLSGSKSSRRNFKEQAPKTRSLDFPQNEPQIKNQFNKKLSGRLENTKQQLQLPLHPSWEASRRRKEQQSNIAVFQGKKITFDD
UniProt Q9H254, whole entry, looked up: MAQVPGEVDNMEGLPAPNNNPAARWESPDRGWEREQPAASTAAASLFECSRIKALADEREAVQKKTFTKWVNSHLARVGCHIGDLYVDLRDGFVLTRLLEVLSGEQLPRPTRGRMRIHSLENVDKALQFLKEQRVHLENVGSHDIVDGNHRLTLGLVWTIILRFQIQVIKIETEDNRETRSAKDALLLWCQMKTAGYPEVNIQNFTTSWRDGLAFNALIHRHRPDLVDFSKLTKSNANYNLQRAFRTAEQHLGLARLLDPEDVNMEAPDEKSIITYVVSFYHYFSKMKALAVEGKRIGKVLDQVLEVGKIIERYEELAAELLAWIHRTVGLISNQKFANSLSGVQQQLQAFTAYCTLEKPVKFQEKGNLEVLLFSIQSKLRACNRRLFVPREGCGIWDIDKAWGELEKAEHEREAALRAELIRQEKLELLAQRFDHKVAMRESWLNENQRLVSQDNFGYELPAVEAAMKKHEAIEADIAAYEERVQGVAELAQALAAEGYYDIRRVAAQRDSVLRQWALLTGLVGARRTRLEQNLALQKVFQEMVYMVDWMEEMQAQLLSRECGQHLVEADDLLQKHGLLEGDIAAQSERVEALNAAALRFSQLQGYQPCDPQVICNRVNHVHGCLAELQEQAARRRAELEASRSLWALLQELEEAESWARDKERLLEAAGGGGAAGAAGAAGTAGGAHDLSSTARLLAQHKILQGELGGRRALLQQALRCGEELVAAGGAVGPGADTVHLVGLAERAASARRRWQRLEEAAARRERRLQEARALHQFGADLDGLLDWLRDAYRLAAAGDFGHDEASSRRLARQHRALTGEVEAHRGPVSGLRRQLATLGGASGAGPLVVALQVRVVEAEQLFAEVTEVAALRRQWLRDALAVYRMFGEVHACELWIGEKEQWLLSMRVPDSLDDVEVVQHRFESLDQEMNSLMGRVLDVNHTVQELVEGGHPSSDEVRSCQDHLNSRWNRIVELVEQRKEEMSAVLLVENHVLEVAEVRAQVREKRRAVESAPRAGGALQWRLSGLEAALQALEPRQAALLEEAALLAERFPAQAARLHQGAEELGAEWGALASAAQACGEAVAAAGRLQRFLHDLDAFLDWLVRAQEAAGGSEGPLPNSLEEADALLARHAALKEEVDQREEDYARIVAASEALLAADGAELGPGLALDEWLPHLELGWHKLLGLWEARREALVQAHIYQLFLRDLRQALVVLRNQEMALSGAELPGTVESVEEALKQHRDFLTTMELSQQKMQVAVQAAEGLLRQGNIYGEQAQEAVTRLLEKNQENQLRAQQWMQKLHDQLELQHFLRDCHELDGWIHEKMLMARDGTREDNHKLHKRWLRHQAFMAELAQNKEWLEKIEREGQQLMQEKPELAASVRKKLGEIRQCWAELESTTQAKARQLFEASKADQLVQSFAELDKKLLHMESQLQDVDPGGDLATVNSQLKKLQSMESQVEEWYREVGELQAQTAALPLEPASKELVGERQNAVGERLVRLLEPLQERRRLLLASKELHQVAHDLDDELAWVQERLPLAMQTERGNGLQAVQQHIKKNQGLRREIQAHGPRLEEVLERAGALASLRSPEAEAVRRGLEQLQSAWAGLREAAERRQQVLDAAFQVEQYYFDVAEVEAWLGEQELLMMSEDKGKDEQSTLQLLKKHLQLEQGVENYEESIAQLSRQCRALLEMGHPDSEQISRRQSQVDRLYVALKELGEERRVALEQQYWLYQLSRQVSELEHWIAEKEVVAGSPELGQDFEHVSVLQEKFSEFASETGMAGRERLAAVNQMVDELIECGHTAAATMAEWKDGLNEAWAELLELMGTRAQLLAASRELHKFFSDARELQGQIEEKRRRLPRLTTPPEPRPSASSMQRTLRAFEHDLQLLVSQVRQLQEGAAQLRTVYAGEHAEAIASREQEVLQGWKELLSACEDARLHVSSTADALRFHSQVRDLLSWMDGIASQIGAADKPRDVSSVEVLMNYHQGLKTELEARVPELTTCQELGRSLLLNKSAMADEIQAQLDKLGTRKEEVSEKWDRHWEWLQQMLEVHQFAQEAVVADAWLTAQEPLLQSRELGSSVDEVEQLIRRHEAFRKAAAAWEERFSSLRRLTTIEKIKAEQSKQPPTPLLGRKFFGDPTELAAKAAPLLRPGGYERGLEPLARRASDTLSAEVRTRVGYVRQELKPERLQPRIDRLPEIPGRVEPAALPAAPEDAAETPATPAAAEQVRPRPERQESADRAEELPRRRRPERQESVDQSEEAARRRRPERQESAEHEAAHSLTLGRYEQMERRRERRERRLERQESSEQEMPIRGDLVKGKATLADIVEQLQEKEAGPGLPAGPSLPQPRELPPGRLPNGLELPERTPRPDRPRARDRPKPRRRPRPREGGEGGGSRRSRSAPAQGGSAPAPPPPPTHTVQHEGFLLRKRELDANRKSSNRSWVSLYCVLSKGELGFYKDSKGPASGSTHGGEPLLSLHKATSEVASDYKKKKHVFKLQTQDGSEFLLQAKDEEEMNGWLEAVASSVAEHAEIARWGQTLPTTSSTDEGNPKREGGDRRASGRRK
UniProt Q9BWW4: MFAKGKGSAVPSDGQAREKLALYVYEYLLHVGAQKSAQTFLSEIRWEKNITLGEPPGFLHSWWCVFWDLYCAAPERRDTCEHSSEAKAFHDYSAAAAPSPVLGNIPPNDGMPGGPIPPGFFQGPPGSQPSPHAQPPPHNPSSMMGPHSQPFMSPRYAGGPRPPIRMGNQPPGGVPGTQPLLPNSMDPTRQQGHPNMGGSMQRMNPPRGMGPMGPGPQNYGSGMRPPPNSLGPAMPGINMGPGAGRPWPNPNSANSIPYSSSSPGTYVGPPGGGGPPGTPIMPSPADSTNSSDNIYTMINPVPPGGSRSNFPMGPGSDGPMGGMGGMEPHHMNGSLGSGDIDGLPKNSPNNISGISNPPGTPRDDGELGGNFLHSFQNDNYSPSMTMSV
UniProt P09132: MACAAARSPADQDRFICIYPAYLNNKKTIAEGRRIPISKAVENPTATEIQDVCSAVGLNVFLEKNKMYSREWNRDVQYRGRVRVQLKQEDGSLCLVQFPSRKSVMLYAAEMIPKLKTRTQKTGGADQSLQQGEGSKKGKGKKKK
UniProt Q9Y5M8: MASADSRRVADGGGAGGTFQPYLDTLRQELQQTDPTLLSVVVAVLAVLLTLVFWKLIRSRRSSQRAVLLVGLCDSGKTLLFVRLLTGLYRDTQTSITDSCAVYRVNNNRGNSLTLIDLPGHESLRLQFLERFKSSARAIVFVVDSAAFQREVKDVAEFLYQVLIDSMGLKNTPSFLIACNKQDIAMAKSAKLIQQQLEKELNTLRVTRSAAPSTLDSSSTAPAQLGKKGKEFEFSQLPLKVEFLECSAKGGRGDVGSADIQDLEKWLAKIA
UniProt Q9BVQ7: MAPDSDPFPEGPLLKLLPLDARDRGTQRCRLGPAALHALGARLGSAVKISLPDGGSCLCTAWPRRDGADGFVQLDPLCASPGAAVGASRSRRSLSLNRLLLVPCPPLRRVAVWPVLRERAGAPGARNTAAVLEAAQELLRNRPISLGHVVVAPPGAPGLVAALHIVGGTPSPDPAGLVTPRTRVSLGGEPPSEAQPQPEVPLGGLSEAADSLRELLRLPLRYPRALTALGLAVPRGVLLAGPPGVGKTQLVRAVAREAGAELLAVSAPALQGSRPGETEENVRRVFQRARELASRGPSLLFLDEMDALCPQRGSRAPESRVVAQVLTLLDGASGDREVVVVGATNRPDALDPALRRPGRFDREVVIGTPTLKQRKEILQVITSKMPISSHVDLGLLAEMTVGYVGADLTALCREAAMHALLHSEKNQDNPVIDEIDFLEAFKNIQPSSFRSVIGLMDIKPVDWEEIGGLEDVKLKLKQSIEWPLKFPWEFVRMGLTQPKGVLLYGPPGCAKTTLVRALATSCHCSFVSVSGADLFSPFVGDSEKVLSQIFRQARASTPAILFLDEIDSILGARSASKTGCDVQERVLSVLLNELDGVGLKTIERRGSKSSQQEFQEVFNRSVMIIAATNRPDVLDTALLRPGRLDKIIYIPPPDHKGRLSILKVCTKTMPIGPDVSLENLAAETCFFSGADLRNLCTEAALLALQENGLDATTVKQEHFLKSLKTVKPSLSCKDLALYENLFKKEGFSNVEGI
UniProt Q9H2V7: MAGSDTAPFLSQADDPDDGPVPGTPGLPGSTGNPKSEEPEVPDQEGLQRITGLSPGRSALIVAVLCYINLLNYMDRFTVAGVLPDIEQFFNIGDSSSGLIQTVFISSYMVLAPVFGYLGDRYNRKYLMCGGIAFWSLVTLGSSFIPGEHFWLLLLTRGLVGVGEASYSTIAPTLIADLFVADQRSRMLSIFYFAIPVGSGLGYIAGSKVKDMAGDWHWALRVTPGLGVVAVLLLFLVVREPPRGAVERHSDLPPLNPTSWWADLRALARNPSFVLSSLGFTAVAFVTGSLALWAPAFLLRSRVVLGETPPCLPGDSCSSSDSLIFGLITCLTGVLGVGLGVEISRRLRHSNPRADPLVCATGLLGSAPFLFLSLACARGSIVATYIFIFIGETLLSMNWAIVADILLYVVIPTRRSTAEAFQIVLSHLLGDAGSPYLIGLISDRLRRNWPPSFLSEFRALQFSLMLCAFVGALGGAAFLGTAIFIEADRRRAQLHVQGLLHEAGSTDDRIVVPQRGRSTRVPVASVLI
UniProt Q9NP77: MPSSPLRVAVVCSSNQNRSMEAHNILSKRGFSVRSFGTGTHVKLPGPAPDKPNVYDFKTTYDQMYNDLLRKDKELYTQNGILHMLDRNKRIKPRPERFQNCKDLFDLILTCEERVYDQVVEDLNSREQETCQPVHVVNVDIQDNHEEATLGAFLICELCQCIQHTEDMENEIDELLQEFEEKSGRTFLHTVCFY
UniProt P51692: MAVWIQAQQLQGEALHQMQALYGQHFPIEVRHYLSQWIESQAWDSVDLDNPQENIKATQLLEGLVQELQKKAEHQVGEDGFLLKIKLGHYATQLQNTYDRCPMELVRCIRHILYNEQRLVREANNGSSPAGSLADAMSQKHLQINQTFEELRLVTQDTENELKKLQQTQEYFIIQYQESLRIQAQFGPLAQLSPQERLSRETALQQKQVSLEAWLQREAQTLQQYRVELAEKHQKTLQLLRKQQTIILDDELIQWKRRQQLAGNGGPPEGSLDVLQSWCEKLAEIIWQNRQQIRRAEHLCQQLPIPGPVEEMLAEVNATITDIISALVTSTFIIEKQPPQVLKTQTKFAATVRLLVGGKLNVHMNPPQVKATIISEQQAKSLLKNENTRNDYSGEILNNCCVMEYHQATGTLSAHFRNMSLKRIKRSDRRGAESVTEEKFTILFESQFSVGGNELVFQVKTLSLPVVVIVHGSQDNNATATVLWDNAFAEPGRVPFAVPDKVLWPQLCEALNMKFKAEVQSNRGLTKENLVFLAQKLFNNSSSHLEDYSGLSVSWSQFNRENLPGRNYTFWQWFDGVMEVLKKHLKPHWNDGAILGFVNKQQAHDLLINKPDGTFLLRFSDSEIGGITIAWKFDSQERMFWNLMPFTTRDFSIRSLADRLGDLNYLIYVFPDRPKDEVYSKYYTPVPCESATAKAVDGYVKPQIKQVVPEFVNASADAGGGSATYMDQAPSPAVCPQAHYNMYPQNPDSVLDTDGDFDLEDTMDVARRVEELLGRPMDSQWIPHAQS

Assays:
Test in all cases: log2 fold change, soluble protein after heating vs DMSO (PISA); higher = thermal stabilisation; K562 lysate, 10 uM; active = over 0.2 and 3.5 SD of the protein, either way, in both replicates (recomputed)
ibrutinib = compound: C=CC(=O)N1CCC[C@@H](n2nc(-c3ccc(Oc4ccccc4)cc3)c3c(N)ncnc32)C1 [ibrutinib]
Procedure, shortened: (§1)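 To prepare the extract, K562 pellets were dounce-homogenised in PBS pH 7.4 with 1 mM MgCl2, giving crude material at 1 mg/mL protein. This was treated with 10 μM compound for 30 min, then heated in aliquots for 3 min over 48°C-58°C before pooling and addition of NP-40 to 0.5% at 4°C. Centrifugation at 21,000xg for 90 min left soluble protein in the supernatant, which TMTpro 16plex LC-MS/MS quantified with equalised channel sums. Results are log-two fold changes in thermal stability compared with solvent controls, from duplicates.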

[1] = compound: CC(=O)c1cnc2ccc(-c3cc(Cl)c(O)c(Cl)c3)nc2c1N[C@H]1CC[C@H](CN(C)C)CC1
Procedure, shortened: as §1

ralimetinib = compound: CC(C)(C)Cn1c(N)nc2ccc(-c3[nH]c(C(C)(C)C)nc3-c3ccc(F)cc3)nc21 [ralimetinib]
Procedure, shortened: as §1

[2] = compound: CC(C)(O)CC(=O)NCCn1ccc2ncnc(Nc3ccc(Oc4cccc(C(F)(F)F)c4)c(Cl)c3)c21
Procedure, shortened: as §1

[3] = compound: CC(C)C1=C2N=C(C=C(N2N=C1)NCC3=CC=CC=C3)NCCCCCCN
Procedure, shortened: as §1

[4] = compound: CC1=C(C(CC(=O)N1)C2=CC=C(C=C2)C(F)(F)F)C(=O)NC3=C(C=C4C(=C3)C=NN4)F
Procedure, shortened: as §1

[5] = compound: CC1=C(C2=C(C=C1)C(=O)C3=CC=CC=C3N2CCCN)C
Procedure, shortened: as §1

[6] = compound: CC1=C(C=C(C=C1)NC(=O)C2=CC(=CC=C2)C(C)(C)C#N)NC3=CC4=C(C=C3)N=CN(C4=O)C
Procedure, shortened: as §1

[7] = compound: CC1=C(C=C(C=C1)NC(=O)C2=CC(=CC=C2)N(C)C)NC(=O)C3=CC=C(C=C3)O
Procedure, shortened: as §1

[8] = compound: CC1=CC=C(C=C1)SC2=C3C=C(SC3=CN=C2)C(=O)N
Procedure, shortened: as §1

vemurafenib = compound: CCCS(=O)(=O)Nc1ccc(F)c(C(=O)c2c[nH]c3ncc(-c4ccc(Cl)cc4)cc23)c1F [vemurafenib]
Procedure, shortened: as §1

[9] = compound: CCCS(=O)(=O)Nc1ccc(F)c(C(=O)c2c[nH]c3ncc(Cl)cc23)c1F
Procedure, shortened: as §1

barasertib = compound: CCN(CCCOc1ccc2c(Nc3cc(CC(=O)Nc4cccc(F)c4)[nH]n3)ncnc2c1)CCOP(=O)(O)O [barasertib]
Procedure, shortened: as §1

[10] = compound: CC[C@@H]1C(=O)N(C)c2cnc(Nc3ccc(C(=O)NC4CCN(C)CC4)cc3OC)nc2N1C1CCCC1
Procedure, shortened: as §1

volasertib = compound: CC[C@@H]1C(=O)N(C)c2cnc(Nc3ccc(C(=O)N[C@H]4CC[C@H](N5CCN(CC6CC6)CC5)CC4)cc3OC)nc2N1C(C)C [volasertib]
Procedure, shortened: as §1

[11] = compound: CCn1c(C(=O)N(C2CC2)C2CC2)cc2c3c(ncn3C)c(Nc3cc(C)n(C)n3)nc21
Procedure, shortened: as §1

[12] = compound: CCn1cc(-c2ccnc3[nH]c(-c4cccc(CN(C)C)c4)cc23)c(-c2ccc(NC(=O)N(C)C)cc2)n1
Procedure, shortened: as §1

[13] = compound: CN1CCC(CNc2ccc3ncc(-c4cccc(OC(F)(F)F)c4)n3n2)CC1
Procedure, shortened: as §1

saracatinib = compound: CN1CCN(CCOc2cc(OC3CCOCC3)c3c(Nc4c(Cl)ccc5c4OCO5)ncnc3c2)CC1 [saracatinib]
Procedure, shortened: as §1

sotrastaurin = compound: CN1CCN(c2nc(C3=C(c4c[nH]c5ccccc45)C(=O)NC3=O)c3ccccc3n2)CC1 [sotrastaurin]
Procedure, shortened: as §1

Measured: log2 fold change

SPTLC2 (UniProt O15270)
inactive: ibrutinib -0.074 | [1] -0.013 | ralimetinib 0.012 | [2] -0.043 | [3] -0.003 | [4] -0.019 | [5] 0.014 | [6] 0.087 | [7] -0.01 | [8] 0.012 | vemurafenib 0.013 | [9] -0.008 | barasertib 0.017 | [10] 0.055 | volasertib 0 | [11] 0.004 | [12] 0 | [13] 0.011 | saracatinib 0.026 | sotrastaurin 0.02

SPRYD4 (UniProt Q8WW59)
inactive: ibrutinib 0.008 | [1] -0.002 | ralimetinib -0.02 | [2] -0.03 | [3] -0.005 | [4] -0.035 | [5] -0.007 | [6] 0.024 | [7] 0.002 | [8] 0.026 | vemurafenib -0.022 | [9] 0 | barasertib 0.024 | [10] -0.009 | volasertib -0.02 | [11] -0.012 | [12] -0.067 | [13] 0.069 | saracatinib -0.006 | sotrastaurin -0.001

SRM (UniProt P19623)
inactive: ibrutinib 0.018 | [1] 0.007 | ralimetinib 0.025 | [2] -0.047 | [3] -0.011 | [4] -0.003 | [5] -0.006 | [6] 0.003 | [7] 0 | [8] -0.011 | vemurafenib -0.004 | [9] -0.003 | barasertib -0.008 | [10] -0.02 | volasertib -0.034 | [11] -0.001 | [12] 0.015 | [13] 0 | saracatinib 0.02 | sotrastaurin 0.011

SPIN1 (UniProt Q9Y657)
inactive: ibrutinib 0.088 | [1] 0.092 | ralimetinib 0.004 | [2] -0.01 | [3] -0.002 | [4] -0.062 | [5] -0.031 | [6] 0.037 | [7] 0.004 | [8] -0.099 | vemurafenib 0.032 | [9] 0.027 | barasertib 0.066 | [10] 0.036 | volasertib -0.082 | [11] -0.028 | [12] 0.053 | [13] 0 | saracatinib 0.062 | sotrastaurin -0.073

STAT6 (UniProt P42226)
inactive: ibrutinib 0 | [1] -0.021 | ralimetinib 0.027 | [2] -0.055 | [3] 0.015 | [4] 0.016 | [5] -0.031 | [6] 0.035 | [7] 0.078 | [8] 0.041 | vemurafenib 0.021 | [9] 0.018 | barasertib 0.011 | [10] -0.005 | volasertib -0.022 | [11] -0.031 | [12] -0.002 | [13] -0.024 | saracatinib 0.009 | sotrastaurin 0.025

SRFBP1 (UniProt Q8NEF9)
inactive: ibrutinib 0.087 | [1] -0.001 | ralimetinib -0.007 | [2] -0.049 | [3] 0.007 | [4] 0.021 | [5] 0 | [6] -0.007 | [7] 0.012 | [8] -0.004 | vemurafenib -0.004 | [9] 0.012 | barasertib 0 | [10] 0.012 | volasertib -0.004 | [11] -0.014 | [12] 0.008 | [13] 0.058 | saracatinib 0.081 | sotrastaurin -0.007

SPTBN4 (UniProt Q9H254)
inactive: ibrutinib 0.018 | [1] 0.018 | ralimetinib 0.032 | [2] -0.288 | [3] -0.074 | [4] -0.011 | [5] 0.025 | [6] 0.028 | [7] -0.021 | [8] 0.007 | vemurafenib -0.053 | [9] -0.017 | barasertib -0.107 | [10] 0.001 | volasertib 0.011 | [11] -0.112 | [12] -0.012 | [13] -0.019 | saracatinib 0.021 | sotrastaurin 0.032

SSBP3 (UniProt Q9BWW4)
active: ibrutinib 0.435
inactive: [1] -0.024 | ralimetinib 0 | [2] -0.038 | [3] -0.02 | [4] -0.021 | [5] -0.018 | [6] -0.018 | [7] 0 | [8] 0.054 | vemurafenib -0.02 | [9] -0.033 | barasertib -0.049 | [10] -0.001 | volasertib 0.008 | [11] 0.038 | [12] -0.03 | [13] -0.083 | saracatinib 0.068 | sotrastaurin -0.005

SRP19 (UniProt P09132)
inactive: ibrutinib 0.014 | [1] 0.001 | ralimetinib -0.033 | [2] 0.02 | [3] -0.063 | [4] 0.02 | [5] 0.029 | [6] 0.009 | [7] -0.039 | [8] 0.031 | vemurafenib 0 | [9] -0.002 | barasertib 0.131 | [10] -0.013 | volasertib -0.058 | [11] 0.01 | [12] -0.127 | [13] 0.006 | saracatinib -0.04 | sotrastaurin -0.001

SRPRB (UniProt Q9Y5M8)
inactive: ibrutinib 0.003 | [1] -0.039 | ralimetinib -0.016 | [2] 0.032 | [3] -0.057 | [4] -0.014 | [5] -0.014 | [6] -0.009 | [7] -0.005 | [8] -0.01 | vemurafenib -0.006 | [9] 0.007 | barasertib -0.035 | [10] -0.013 | volasertib -0.047 | [11] 0.01 | [12] 0.001 | [13] 0.001 | saracatinib 0 | sotrastaurin 0

SPATA5L1 (UniProt Q9BVQ7)
inactive: ibrutinib -0.007 | [1] 0.02 | ralimetinib 0.037 | [2] -0.054 | [3] 0.018 | [4] -0.004 | [5] -0.052 | [6] -0.007 | [7] 0.026 | [8] -0.008 | vemurafenib 0.03 | [9] 0.015 | barasertib 0.052 | [10] -0.058 | volasertib -0.135 | [11] 0.014 | [12] -0.023 | [13] 0.012 | saracatinib 0.024 | sotrastaurin 0.015

SSR1 (UniProt P43307)
inactive: ibrutinib 0.019 | [1] 0.04 | ralimetinib -0.019 | [2] -0.038 | [3] -0.072 | [4] 0.03 | [5] 0.021 | [6] 0.006 | [7] 0.005 | [8] 0.041 | vemurafenib -0.012 | [9] -0.026 | barasertib -0.051 | [10] 0.021 | volasertib 0.004 | [11] -0.03 | [12] -0.1 | [13] 0.054 | saracatinib 0.024 | sotrastaurin 0.039

Two neighbouring entries from above:
SRP19 (UniProt P09132)
inactive: ibrutinib 0.014 | [1] 0.001 | ralimetinib -0.033 | [2] 0.02 | [3] -0.063 | [4] 0.02 | [5] 0.029 | [6] 0.009 | [7] -0.039 | [8] 0.031 | vemurafenib 0 | [9] -0.002 | barasertib 0.131 | [10] -0.013 | volasertib -0.058 | [11] 0.01 | [12] -0.127 | [13] 0.006 | saracatinib -0.04 | sotrastaurin -0.001

SRPRB (UniProt Q9Y5M8)
inactive: ibrutinib 0.003 | [1] -0.039 | ralimetinib -0.016 | [2] 0.032 | [3] -0.057 | [4] -0.014 | [5] -0.014 | [6] -0.009 | [7] -0.005 | [8] -0.01 | vemurafenib -0.006 | [9] 0.007 | barasertib -0.035 | [10] -0.013 | volasertib -0.047 | [11] 0.01 | [12] 0.001 | [13] 0.001 | saracatinib 0 | sotrastaurin 0

Following part.

SPNS1 (UniProt Q9H2V7)
inactive: ibrutinib 0.02 | [1] -0.001 | ralimetinib 0.005 | [2] -0.009 | [3] 0.007 | [4] -0.009 | [5] -0.007 | [6] 0.047 | [7] -0.029 | [8] 0.012 | vemurafenib 0 | [9] 0.036 | barasertib -0.004 | [10] 0.154 | volasertib -0.004 | [11] -0.097 | [12] -0.014 | [13] 0.064 | saracatinib -0.006 | sotrastaurin 0.02

STAM2 (UniProt O75886)
inactive: ibrutinib -0.007 | [1] -0.007 | ralimetinib -0.064 | [2] -0.008 | [3] -0.006 | [4] 0.027 | [5] -0.004 | [6] -0.012 | [7] 0.016 | [8] -0.029 | vemurafenib 0 | [9] 0.017 | barasertib -0.033 | [10] 0.06 | volasertib -0.006 | [11] 0.017 | [12] -0.012 | [13] 0.01 | saracatinib 0.031 | sotrastaurin -0.032

SSU72 (UniProt Q9NP77)
inactive: ibrutinib 0.075 | [1] 0.031 | ralimetinib 0.026 | [2] -0.002 | [3] 0.038 | [4] -0.018 | [5] 0.025 | [6] 0.001 | [7] 0.015 | [8] 0.03 | vemurafenib -0.018 | [9] 0.001 | barasertib 0.018 | [10] -0.064 | volasertib -0.045 | [11] -0.049 | [13] 0.171 | saracatinib -0.001 | sotrastaurin 0.018
active: [12] -0.325

STAT5B (UniProt P51692)
inactive: ibrutinib -0.017 | [1] 0.017 | ralimetinib -0.026 | [2] -0.024 | [3] -0.013 | [4] -0.03 | [5] -0.013 | [6] 0.029 | [7] 0.01 | [8] -0.031 | vemurafenib 0.039 | [9] 0.01 | barasertib 0.059 | [10] 0.002 | volasertib -0.064 | [11] -0.017 | [12] -0.068 | [13] -0.051 | saracatinib -0.014 | sotrastaurin 0.004
